Values joined by “and” are separate entries in the source; they are usually repeats but may differ in a detail not shown here. Identical values can stand only once. Hit rate of the full screen: of about 2,000 compounds, fewer than 10 were called active.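 Rule for the calls: active = growth inhibition of at least 75% in every replicate, which also brings the mean inhibition to 75% or more; inconclusive = mean inhibition 75% or more but some replicate under 75%; inactive = the rest.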 The list shows a part of the results.

A short description of the test: growth inhibition of PfHsp90-dependent yeast, primary screen, antimalarial PfHsp90 inhibitor project, S. cerevisiae, BacTiter-Glo luminescence (AID 504594).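 Note: 0% = DMSO neutral control wells and 100% = 20 µM radicicol control wells; higher value means stronger growth inhibition because the sign is flipped.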 The note with it: S. cerevisiae expressing PfHsp90, BacTiter-Glo growth, 48 h; at 9.4 µM; active compounds read high.
Consider `CCC(COC(=O)c1cc(OC)c(OC)c(OC)c1)(c1ccccc1)N(C)C` (centres undefined), for which the growth inhibition was inactive: -0.969%.
As for `O=c1[nH]c(=S)n(-c2ccccc2)c(O)c1/C=N/N1CCCCC1c1cccnc1` (centres undefined), the figure is inactive: -1.72%; as for `COC(=O)C1=C(C)NC(C)=C(C(=O)OC)C1c1ccccc1[N+](=O)[O-]`, inactive: -1.79%; as for `Cc1ccc2c(c1)C1CN(C)CCC1N2C(=O)Nc1cccc(Cl)c1` (centres undefined), inactive: -6.57%.
`CCN(CC)CCOC(=O)C(O)(c1ccccc1)c1ccccc1`: the growth inhibition was inactive: -5.93%.
The same measure for `C[C@]12CC[C@@H]3c4ccc(O)c(O)c4CC[C@H]3[C@@H]1CC[C@@H]2O`: inactive: -9.37%; for `O=C1C=Cc2ccccc2C1=O`: inactive: 3.99%.
`C[C@]12CCC(=O)C(O)=C1CC[C@@H]1[C@@H]2CC[C@]2(C)C(=O)CC[C@@H]12`: the growth inhibition is inactive: -2.97%.
As for `CC(=O)c1ccc(-c2ccccc2)cc1`, the figure is inactive: -6.42%; as for `CCCC(=O)OCC[N+](C)(C)C`, inactive: -12.8%; as for `CC(C)C(=O)Nc1ccc(S(=O)(=O)N2CC3CC(C2)c2cccc(=O)n2C3)cc1` (centres undefined), inactive: 0.68%.
Turning to `O=Cc1cn(Cc2ccc(F)cc2)c2ccccc12`, the growth inhibition is inactive: -5.49%.
The same measure for `c1ccc2c(c1)[nH]c1cnccc12`: inactive: -1.24%.
The same measure for `COc1ccccc1CN1CCCCC1c1cccnc1` (centres undefined): inactive: 7.73%.
As for `Nc1ccc([As](=O)(O)O)cc1`, the figure is inactive: -2.46%.
`CC12CN3CC(C)(CN(C1)C3c1cccs1)C2=O` (centres undefined): the growth inhibition was inactive: 1.89%.
Consider `O=c1[nH]c2ccccc2n1C1CCN(CCCC(c2ccc(F)cc2)c2ccc(F)cc2)CC1`, for which the growth inhibition was inactive: -4.94%.
Take `CC(=O)Nc1cc([As](=O)(O)O)ccc1O`: the growth inhibition was inactive: 0.452%.
For `Cc1cc(Cl)ccc1OC(C)C(=O)O` (centres undefined), the growth inhibition was inactive: -11.9%.
For the compound `CC12CN3CC(C)(CN(C1)C3c1cccnc1)C2=O` (centres undefined), the growth inhibition is inactive: -1.32%.
Regarding `C[C@]12CCC(=O)C=C1CCC1C2CC[C@@]2(C)C1CC[C@@]2(O)CC#N` (some centres undefined), the growth inhibition was inactive: -4.64%.
As for `CN[C@H](C)[C@H](O)c1ccccc1`, the figure is inactive: 10.8%; as for `CN1[C@@H]2CC[C@H]1CC(OC(=O)C1C=Nc3ccccc31)C2` (some centres undefined), inactive: -13.3%; as for `CCCC(C)(COC(N)=O)COC(=O)NC(C)C` (centres undefined), inactive: 14.3%.
With `C[C@]12CCC(=O)C=C1CC[C@@H]1[C@@H]2CC[C@]2(C)C(=O)CC[C@@H]12`, the growth inhibition is inactive: -1.01%.
As for `OC(c1ccccc1)(c1ccccc1)C1CCNCC1`, the figure is inactive: -11.9%; as for `COc1ccc(-c2nc3ccccc3c(=O)o2)cc1`, inactive: 12.1%; as for `C[C@H]1OC[C@@H](C[N+](C)(C)C)O1`, inactive: 2.67%.
As for `O=C1CSC2N1CCNC21CCCCC1` (centres undefined), the figure is inactive: -18.1%; as for `COc1cccc(Oc2c(C)oc3cc(OC(=O)N(C)C)ccc3c2=O)c1`, inactive: -7.36%.
The same measure for `COc1ccc(OC)c(C(O)C(C)N)c1` (centres undefined): inactive: 3.01%; for `COc1ccc(CN2CC3CC(C2)c2cccc(=O)n2C3)cc1OC` (centres undefined): inactive: -2.34%.
Turning to `COc1ccc(NC2=NCC(C)S2)cc1` (centres undefined), the growth inhibition was inactive: 0.069%.
The same measure for `c1ccc2c3c([nH]c2c1)CNCC3`: inactive: 5.45%; for `CN(C)[C@@H]1C(=O)C(C(N)=O)=C(O)[C@@]2(O)C(=O)C3=C(O)c4c(O)cccc4[C@@](C)(O)[C@H]3[C@H](O)[C@@H]12`: inactive: -12.9%.
As for `Cn1c(O)c(C=NCCc2c[nH]c3ccccc23)c(=O)n(C)c1=O`, the figure is inactive: -4.75%; as for `CCOc1ccc(N2C(=O)NC(=O)/C(=C\c3cc(OC)c(OC)cc3[N+](=O)[O-])C2=O)cc1`, inactive: -0.939%; as for `CC(C)CCC1(CN2CCCC2=O)C(=O)NC(=O)NC1=O`, inactive: 1.6%.
Turning to `CC(=O)[C@H]1CC[C@H]2[C@@H]3CC[C@H]4C[C@H](O)CC[C@]4(C)[C@H]3C(=O)C[C@]12C`, the growth inhibition is inactive: -16.3%.
As for `C[C@H]1CCCC(=O)CCCCCc2cc(O)cc(O)c2C(=O)O1`, the growth inhibition is inactive: -3.26%.
Regarding `CN1C[C@H](CNC(=O)OCc2ccccc2)C[C@@H]2c3cccc4c3c(cn4C)C[C@H]21`, the growth inhibition was inactive: 3.46%.
For `O=C1NCCN2CCCC12` (centres undefined), the growth inhibition was inactive: 8.78%.
As for `OCc1cnc[nH]1`, the figure is inactive: -6.75%; as for `CCN(CC)C(=O)N[C@H]1C[C@@H]2c3cccc4[nH]cc(c34)C[C@H]2N(C)C1`, inactive: 12.2%; as for `CC12CN3CC(c4ccccc4)(CN(C1)C31CCCCC1)C2=O`, inactive: 3.67%.
The same measure for `CC[C@@H](CO)NC(=O)[C@@H]1C=C2c3cccc4c3c(cn4C)C[C@H]2N(C)C1`: inactive: -20.1%; for `c1ccc2c(c1)OCC(C1=NCCN1)O2` (centres undefined): inactive: 5.59%; for `CC[N+]1(C)CCCC(OC(=O)C(O)(c2ccccc2)c2ccccc2)C1` (centres undefined): inactive: -1.41%.
As for `CCn1c(O)c(C(=O)CC2NCCc3ccccc32)c(=O)n(CC)c1=S` (centres undefined), the figure is inactive: 4.65%.
`C[N+]1(C)CCc2cc3c(cc2[C@H]1[C@@H]1OC(=O)c2c1ccc1c2OCO1)OCO3`: the growth inhibition is inactive: -13.2% and inactive: -2.04%.
As for `O=c1c2ccccc2nc(/C=C/c2ccc3c(c2)OCO3)n1-c1ccccc1`, the figure is inactive: -7.08%; as for `C=C1CC[C@@]2(O)[C@H]3Cc4ccc(O)c5c4[C@@]2(CCN3CC2CC2)[C@H]1O5`, inactive: -2.05%.
Consider `O=C(CCCN1CCC2(CC1)C(=O)NCN2c1ccccc1)c1ccc(F)cc1`, for which the growth inhibition was inactive: 3.2%.
Regarding `Cc1ccc(/C=C2/C(=O)NC(=O)N(C)C2=O)cc1`, the growth inhibition is inactive: 6.36%.
The same measure for `C=CC1CN2CCC1CC2[C@@H](OC(=O)c1ccc(OC)cc1)c1ccnc2ccccc12` (some centres undefined): inactive: 13.4%; for `NCCc1c[nH]c2ccc(F)cc12`: inactive: -2.22%; for `CCOC(=O)c1cncn1C(C)c1ccccc1` (centres undefined): inactive: 6.7%.
The same measure for `c1cnc2c(c1)ccc1ncccc12`: inactive: -11.8%.
The same measure for `O=c1cccc2n1C[C@H]1C[C@@H]2CN2CCCC[C@@H]12`: inactive: -2.57%; for `CCC1(c2ccccc2)C(=O)N(COC)C(=O)N(COC)C1=O`: inactive: -6.92%; for `O=C1CC[C@@]2(O)[C@H]3Cc4ccc(O)c5c4[C@@]2(CCN3CC2CC2)[C@H]1O5`: inactive: 2.39%.
Consider `NCC1(c2ccc3c(c2)OCCO3)CCCC1`, for which the growth inhibition is inactive: 2.84%.
As for `CN1C(=O)CN=C(c2ccc(Cl)cc2)c2cc(Cl)ccc21`, the figure is inactive: 5.49%.
As for `O=c1c2ccccc2[se]n1-c1ccccc1`, the growth inhibition was inactive: 67.8%.
The same measure for `CC(C)(C)C(O)C(Oc1ccc(Cl)cc1)n1cncn1` (centres undefined): active: 96.5%; for `c1ccc2c(c1)Nc1ccccc1S2`: inactive: 0.934%.
The same measure for `C[N+]1(C)C2CCC1CC(OC(=O)C(CO)c1ccccc1)C2` (centres undefined): inactive: -0.34%.
The same measure for `NCC(O)c1ccc(O)cc1` (centres undefined): inactive: -11.1%.
For the compound `C[C@H]1CC[C@@]2(C)[C@@H](CC[C@@H]3[C@@H]2CC[C@]2(C)[C@@H](O)CC[C@@H]32)C1`, the growth inhibition was inactive: 5.17%.
The same measure for `S=C1NCCN1`: inactive: -3.04%; for `C[N+]1(C)[C@@H]2CC(OC(=O)[C@H](CO)c3ccccc3)C[C@H]1[C@@H]1O[C@@H]12` (some centres undefined): inactive: -0.653% and inactive: 16.1%; for `c1ccc(Cn2ccnc2)cc1`: inactive: -14.6%.
The same measure for `CC(C)C[C@H]1C(=O)N2CCCC2[C@]2(O)O[C@](NC(=O)[C@@H]3C=C4c5cccc6[nH]cc(c56)CC4N(C)C3)(C(C)C)C(=O)N12` (some centres undefined): inactive: 12.7%.
Regarding `CC(C)[C@H]1C(=O)N2CCC[C@H]2[C@]2(O)O[C@](NC(=O)[C@@H]3C=C4c5cccc6[nH]cc(c56)C[C@H]4N(C)C3)(C(C)C)C(=O)N12`, the growth inhibition was inactive: 1.01%.

The values above are taken from PubChem BioAssay AID504594 (Broad Institute, 2011).
